Assay results from paper PMC7532188.
Results are given in words; binding and its absence hold for the method and conditions named. For some assays here: Binding seen in cells or lysates may run through a third protein. Some results given as binding are weak or reduced against the parent protein; the word gives no strength. Values belong to the molecule of their own block, whether it stands above or below them.

Tests used:
[1] = target: TASOR (transgene activation suppressor), exogenously expressed in HUSH triple KO cells (human) (UniProt Q9UK61); assay: co-IP; pairwise combinations of HUSH subunits exogenously expressed in HUSH triple KO cells; reciprocal co-IP and immunoblot; lysis in 1% NP-40 in TBS with benzonase, 2 h at 4 °C
[2] = target: TASOR(106–332), DUF3715 / PARP domain (human) (UniProt Q9UK61); assay: NMR relaxation (T1/T2 ratio, tumbling correlation time); TASOR(106–332) at 250 µM in PBS pH 7.0, 1 mM TCEP; τC ~15 ns; both purified

- binding [1]: binds
Molecule: M-phase phosphoprotein 8 (MPP8), exogenously expressed in HUSH triple KO cells (from UniProt Q99549-1 1-860)

- binding [2]: no binding (tested: 250 µM)
B1: TASOR(106–332), DUF3715 / PARP domain (domain or fragment, UniProt Q9UK61-1 106-332)
chain: SREKKALFQPLTPGSREFEDVVNILHSSYLEPTSVTNFNYRRACLVHNELLEKEFTEKRRELKFDGRLDKELSESYAFLMVDRYQVQTICEKGLHVGQSKITILGSPSMGVYLSRYADLLQANPLDTGAMGDVVIFKIMKGKIKSIYDPMGVKSLESMLNKSALDPTPKHECHVSKNANRITSLLAYRAYELTQYYFYEYGFDELRRRPRHVCPYAVVSFTYKDDIQ
